Results deposited as PubChem BioAssay AID1259308 (NCATS, 2017)

- Test: 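Candidate targets for better recombinant protein yield in mammalian cells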 (primary screen)
- System: human HEK293 embryonic kidney cells stably expressing firefly luciferase (HEK-CMV-Luc2-Hygro)
- Reagents: single siRNA against human genes, 0.8 pmol siRNA per well
- Timing: 72 h
- Detection: 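Luciferase light (ONE-Glo) measured on one replicate plate set and viability (CellTiter-Glo) on the other, scaled to a negative control siRNA, with robust z-scores and luciferase per cell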
- Direction: total luciferase, z-score: higher = more reporter protein produced
- Call rule: 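An siRNA counts as active if its total luciferase robust z-score exceeds 3; genes with two or more such siRNAs out of three were retested with fresh siRNAs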
- Meaning of the calls: active = raised luciferase; inactive = no rise
In all, the deposit lists about 59,000 reagents; below is a part drawn at random. Of all reagents, about 1,510 (2.6%) were called active. 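Calls use total luciferase alone and ignore viability, so some active siRNAs may act by altering cell number.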 Reagents against one gene are numbered here. Not all columns of the deposit are shown. No sequences are given here.

Against HAP1 (huntingtin associated protein 1) #1, the values are total luciferase, z-score -0.0299; inactive.
With knock-down of HAP1 (huntingtin associated protein 1) #2 the results were total luciferase, z-score 0.208; inactive.
HAP1 (huntingtin associated protein 1) #3 gave total luciferase, z-score -0.148; inactive.
With knock-down of TLX1 (T cell leukemia homeobox 1) #1, the screen gave total luciferase, z-score 0.63; inactive.
With knock-down of TLX1 (T cell leukemia homeobox 1) #2 the results were total luciferase, z-score -2.09; inactive.
For TLX1 (T cell leukemia homeobox 1) #3, the values are total luciferase, z-score 1.35; inactive.
After knock-down of NPHP4 (nephrocystin 4) #1, the screen gave total luciferase, z-score 0.873; inactive.
After knock-down of NPHP4 (nephrocystin 4) #2 the results were total luciferase, z-score -1.31; inactive.
NPHP4 (nephrocystin 4) #3 gave total luciferase, z-score 0.567; inactive.
Against EXOC7 (exocyst complex component 7) #1, the entry reads total luciferase, z-score 0.492; inactive.
With knock-down of EXOC7 (exocyst complex component 7) #2 the results were total luciferase, z-score 0.23; inactive.
Silencing of EXOC7 (exocyst complex component 7) #3 resulted in: total luciferase, z-score 1.98; inactive.
For RENBP (renin binding protein) #1, the values are total luciferase, z-score 0.133; inactive.
With knock-down of RENBP (renin binding protein) #2, the screen gave total luciferase, z-score 1.52; inactive.
RENBP (renin binding protein) #3 scored total luciferase, z-score 0.663; inactive.

Copied from above (5 entries):
HAP1 (huntingtin associated protein 1) #3 — total luciferase, z-score: -0.148; outcome: inactive
TLX1 (T cell leukemia homeobox 1) #1 — total luciferase, z-score: 0.63; outcome: inactive
TLX1 (T cell leukemia homeobox 1) #2 — total luciferase, z-score: -2.09; outcome: inactive
TLX1 (T cell leukemia homeobox 1) #3 — total luciferase, z-score: 1.35; outcome: inactive
NPHP4 (nephrocystin 4) #1 — total luciferase, z-score: 0.873; outcome: inactive

Next records:
With knock-down of SAP30 (Sin3A associated protein 30) #1, the record shows total luciferase, z-score -0.186; inactive.
After knock-down of SAP30 (Sin3A associated protein 30) #2, the record shows total luciferase, z-score -0.0653; inactive.
Knock-down of SAP30 (Sin3A associated protein 30) #3 came out at: total luciferase, z-score -0.393; inactive.
Knock-down of TCF19 (transcription factor 19) #1 gave: total luciferase, z-score 0.458; inactive.
For TCF19 (transcription factor 19) #2 the deposit lists total luciferase, z-score -0.728; inactive.
Silencing of TCF19 (transcription factor 19) #3 gave: total luciferase, z-score 1.44; inactive.
With knock-down of PIM3 (Pim-3 proto-oncogene, serine/threonine kinase) #1, the screen gave total luciferase, z-score 0.902; inactive.
For PIM3 (Pim-3 proto-oncogene, serine/threonine kinase) #2, the values are total luciferase, z-score -0.222; inactive.
For PIM3 (Pim-3 proto-oncogene, serine/threonine kinase) #3 the deposit lists total luciferase, z-score -1.61; inactive.
Against NUP188 (nucleoporin 188) #1, the entry reads total luciferase, z-score 1.6; inactive.
NUP188 (nucleoporin 188) #2 showed total luciferase, z-score -1.62; inactive.
For NUP188 (nucleoporin 188) #3, the entry reads total luciferase, z-score 0.348; inactive.
GATM (glycine amidinotransferase) #1 gave total luciferase, z-score -1.57; inactive.
Depletion of GATM (glycine amidinotransferase) #2 gave: total luciferase, z-score 0.145; inactive.
With knock-down of GATM (glycine amidinotransferase) #3, the screen gave total luciferase, z-score -1.43; inactive.
Knock-down of IAH1 (isoamyl acetate hydrolyzing esterase 1 (putative)) #1 came out at: total luciferase, z-score -0.0903; inactive.
With knock-down of IAH1 (isoamyl acetate hydrolyzing esterase 1 (putative)) #2 the results were total luciferase, z-score -0.65; inactive.
IAH1 (isoamyl acetate hydrolyzing esterase 1 (putative)) #3 showed total luciferase, z-score 0.964; inactive.
